Test results from paper PMC3524801.
No constants are given. Whether binding was seen depends on the method and setting. Binding seen in cells or lysates may run through a third protein. Some entries that bind do so weakly or less than the wild type.

Amino acid sequences for entries named in this document (tags omitted).
UniProt Q86WV6: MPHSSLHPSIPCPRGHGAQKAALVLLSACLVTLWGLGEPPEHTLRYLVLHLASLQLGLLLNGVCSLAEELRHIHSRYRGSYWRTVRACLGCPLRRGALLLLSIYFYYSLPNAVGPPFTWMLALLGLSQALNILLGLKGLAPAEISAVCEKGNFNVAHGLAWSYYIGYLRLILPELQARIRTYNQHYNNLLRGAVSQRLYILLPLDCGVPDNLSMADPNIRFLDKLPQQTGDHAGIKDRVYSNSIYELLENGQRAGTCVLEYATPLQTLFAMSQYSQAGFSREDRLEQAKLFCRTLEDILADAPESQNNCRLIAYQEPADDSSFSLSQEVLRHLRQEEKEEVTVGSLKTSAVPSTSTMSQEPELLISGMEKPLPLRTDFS

Assays:
[1] = target: FLAG-tagged STING (stimulator of IFN genes) (UniProt Q86WV6); assay: co-IP; FLAG-agarose immunoprecipitation of FLAG-STING from STING-293Trex cells induced with doxycycline (2 μg/ml, 24 hr), prior to DNA stimulation; immunoblot of precipitated proteins
[2] = target: FLAG-tagged STING (stimulator of IFN genes) (UniProt Q86WV6); assay: condition: only after transfection of DNA (5 μg/ml); co-IP; FLAG-agarose immunoprecipitation of FLAG-STING from STING-293Trex cells induced with doxycycline (2 μg/ml, 24 hr) and stimulated by transfection of 5 μg/ml DNA for the indicated times; immunoblot of precipitated proteins

binding [1]: binds
binding [2]: no binding
Substance: Ku70 (from UniProt P12956 1-609)
